PubChem BioAssay AID504774 | Drosophila RNAi Screening Center – 2011
The screen tested about 23,000 reagents; below is a random part of those with a known target gene and a result. 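Values are quantile-normalised luminescence on an arbitrary scale; higher means more cells surviving MMS.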 Names joined by + are all predicted targets of the reagent. Further read-outs or replicates are left out here. Reagent sequences are not shown.

Aim: 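Genes required for cells to withstand methyl methanesulphonate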 (primary screen)
Cells: Drosophila Kc167 cells
Knock-down reagent: long dsRNA against Drosophila genes, about 0.25 µg dsRNA per well
Timing: about 6 days: 3 days knock-down, then 3 days with or without MMS
Conditions: methyl methanesulphonate 0.004% (w/v) for 3 days after knock-down
Measured: 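Viability in wells given MMS, read as ATP luminescence, normalised by quantiles plate by plate and averaged across replicates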
Direction: mean viability with MMS: higher = more surviving cells after MMS

mean viability with MMS, by gene knocked down and reagent
Nepl16: DRSC14650 3.58e6
CG11379: DRSC18629 3.39e6
CG4763: DRSC04009 3.56e6; DRSC04487 3.41e6
Send1: DRSC00482 3.48e6
CtBP: DRSC16617 3.38e6
CG12768: DRSC11680 3.29e6; DRSC23215 3.74e6
Cad96Cb: DRSC14243 3.36e6; DRSC14665 3.39e6
H: DRSC16692 3.52e6
CG7290: DRSC10800 3.59e6
Cyp311a1: DRSC20239 3.58e6
CG11755: DRSC14374 3.51e6
CG12057: DRSC17797 3.64e6
Nepl10: DRSC07212 3.74e6
CG5056: DRSC02808 3.64e6
sens-2: DRSC02136 3.65e6; DRSC02613 3.55e6; DRSC21374 2.59e6
PlexA: DRSC17220 3.46e6
CG5131: DRSC02817 3.62e6
Ir68b: DRSC10251 3.55e6
CG15211: DRSC19657 3.61e6
Ih: DRSC07445 3.60e6
CG13288: DRSC09962 3.51e6
mRpS34: DRSC09918 3.78e6
Lcp65Ac: DRSC11210 3.67e6
CG14120: DRSC10124 3.59e6
cue: DRSC08248 3.51e6
CG7567: DRSC16258 3.41e6
odd: DRSC00832 2.69e6; DRSC23024 3.51e6
CG14453: DRSC11710 3.54e6
jhamt: DRSC01985 3.37e6
Jon65Aii: DRSC10665 3.74e6

A stretch of the results above:
mean viability with MMS, by gene knocked down and reagent
CG12768: DRSC23215 3.74e6
Cad96Cb: DRSC14243 3.36e6; DRSC14665 3.39e6
H: DRSC16692 3.52e6
CG7290: DRSC10800 3.59e6
Cyp311a1: DRSC20239 3.58e6
CG11755: DRSC14374 3.51e6

The results go on.
mean viability with MMS, by gene knocked down and reagent
CG15705: DRSC06576 3.56e6
CG4287: DRSC15559 3.58e6
glu: DRSC03539 3.40e6
Adat1: DRSC03479 3.50e6
Rpn5: DRSC12367 3.17e6
Wdr24: DRSC14151 3.58e6
ChAT: DRSC13314 3.32e6; DRSC16609 3.35e6; DRSC22755 3.48e6
CG17078: DRSC00484 3.44e6
Sas-4: DRSC12505 3.51e6
CG13121 (retired record): DRSC02217 3.62e6
CG42490 (retired record): DRSC01649 3.52e6
ValRS-m: DRSC10535 3.42e6
CSN7: DRSC06807 3.43e6; DRSC06808 3.40e6
CrzR: DRSC09781 3.47e6; DRSC09782 3.35e6
CG3436: DRSC00605 3.00e6
caps: DRSC11333 3.63e6; DRSC22224 3.82e6
CG17919: DRSC12571 3.67e6
Caf1-180: DRSC17807 3.47e6
Acph-1: DRSC14103 3.33e6
Ca-alpha1D: DRSC03284 3.70e6
Fis1: DRSC07772 3.69e6
CG5902: DRSC15912 3.49e6
CG31058 (retired record): DRSC15840 3.19e6; DRSC22987 3.56e6
sturkopf: DRSC08637 3.68e6
thoc7: DRSC08512 3.49e6
CG10140: DRSC09704 3.56e6
ttk: DRSC14078 3.50e6; DRSC17091 3.71e6
ovm + CG31975: DRSC22146 3.62e6
IP3K1: DRSC02734 3.97e6
CG2021: DRSC08546 3.49e6
CG31626 + CG8677: DRSC21844 3.69e6
CG4066: DRSC15541 3.66e6
COX2 (retired record): DRSC21276 3.49e6
CG13994: DRSC02326 3.54e6
Men-b: DRSC16736 3.78e6
IFT57: DRSC00720 3.72e6
Rok: DRSC20277 3.72e6; DRSC23348 3.12e6
CG32085: DRSC10138 3.54e6; DRSC10139 3.53e6; DRSC10576 3.41e6
yellow-b: DRSC03639 3.60e6
RnrS: DRSC07533 2.97e6
CG13137: DRSC02234 3.57e6
